Taken from: PubChem BioAssay AID1224830 (NIAID, 2016)

Screen: 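Genes whose knock-down alters the TNF-alpha reporter response to LPS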 (primary screen)
Cell system: human THP-1 monocytic leukaemia cells, TNF dual-luciferase reporter clone, PMA-differentiated to macrophage-like cells
Reagents: siRNA pool against human genes, 50 nM
Time to read-out: LPS for 4 h, given about 3 days after siRNA transfection
Conditions: bacterial LPS (TLR4 ligand), 10 ng/ml
Detection: 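Ratio of firefly to renilla light, scaled to the plate median and expressed as a robust z-score per replicate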
Reading the numbers: TNF reporter robust z-score: higher = stronger TNF reporter response to LPS
Rule for the call: 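Each well counts as active if its z-score is over 2.8 or under -1.5; controls are left without a call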
This is a random part of about 18,000 deposited reagents. In the full data, about 2,900 (16%) are marked active. 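Calls are made per well; low scores hint the gene aids the LPS response, high scores that it dampens it.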 Repeated entries: four replicate wells of each siRNA pool.

TRMT10B (tRNA methyltransferase 10B) → call = inactive
TRMT10B (tRNA methyltransferase 10B) → TNF reporter robust z-score = -0.85; call = inactive
TRMT10B (tRNA methyltransferase 10B) → TNF reporter robust z-score = -0.84; call = inactive
TRMT10B (tRNA methyltransferase 10B) → TNF reporter robust z-score = -0.62; call = inactive
TRMT10B (tRNA methyltransferase 10B) → TNF reporter robust z-score = -0.4; call = inactive
ABI3 (ABI family member 3) → TNF reporter robust z-score = -0.27; call = inactive
ABI3 (ABI family member 3) → TNF reporter robust z-score = 0.2; call = inactive
ABI3 (ABI family member 3) → TNF reporter robust z-score = 0.04; call = inactive
ABI3 (ABI family member 3) → TNF reporter robust z-score = 0.17; call = inactive
JADE1 (jade family PHD finger 1) → TNF reporter robust z-score = -0.33; call = inactive
JADE1 (jade family PHD finger 1) → TNF reporter robust z-score = 0.5; call = inactive
JADE1 (jade family PHD finger 1) → TNF reporter robust z-score = -0.86; call = inactive
JADE1 (jade family PHD finger 1) → TNF reporter robust z-score = 0.72; call = inactive
MSANTD3 (Myb/SANT DNA binding domain containing 3) → TNF reporter robust z-score = 0.55; call = inactive
MSANTD3 (Myb/SANT DNA binding domain containing 3) → TNF reporter robust z-score = 1.59; call = inactive
MSANTD3 (Myb/SANT DNA binding domain containing 3) → TNF reporter robust z-score = 1.6; call = inactive
MSANTD3 (Myb/SANT DNA binding domain containing 3) → TNF reporter robust z-score = 0.85; call = inactive

No new results follow: 3 of the entries above.
JADE1 (jade family PHD finger 1) → TNF reporter robust z-score = 0.72; call = inactive
MSANTD3 (Myb/SANT DNA binding domain containing 3) → TNF reporter robust z-score = 0.55; call = inactive
MSANTD3 (Myb/SANT DNA binding domain containing 3) → TNF reporter robust z-score = 1.59; call = inactive

Continued:
PMS1 (PMS1 homolog 1, mismatch repair system component) → TNF reporter robust z-score = -0.1; call = inactive
PMS1 (PMS1 homolog 1, mismatch repair system component) → TNF reporter robust z-score = -0.29; call = inactive
PMS1 (PMS1 homolog 1, mismatch repair system component) → TNF reporter robust z-score = -1.02; call = inactive
PMS1 (PMS1 homolog 1, mismatch repair system component) → TNF reporter robust z-score = 0.04; call = inactive
FAF2 (Fas associated factor family member 2) → TNF reporter robust z-score = 1.06; call = inactive
FAF2 (Fas associated factor family member 2) → TNF reporter robust z-score = 1.91; call = inactive
FAF2 (Fas associated factor family member 2) → TNF reporter robust z-score = 1.39; call = inactive
FAF2 (Fas associated factor family member 2) → TNF reporter robust z-score = 0.93; call = inactive
RSPH6A (radial spoke head 6 homolog A) → TNF reporter robust z-score = -0.23; call = inactive
RSPH6A (radial spoke head 6 homolog A) → TNF reporter robust z-score = 0.75; call = inactive
RSPH6A (radial spoke head 6 homolog A) → TNF reporter robust z-score = -0.18; call = inactive
RSPH6A (radial spoke head 6 homolog A) → TNF reporter robust z-score = 1.33; call = inactive
TSPAN13 (tetraspanin 13) → TNF reporter robust z-score = 0.59; call = inactive
TSPAN13 (tetraspanin 13) → TNF reporter robust z-score = -0.09; call = inactive
TSPAN13 (tetraspanin 13) → TNF reporter robust z-score = 0.84; call = inactive
TSPAN13 (tetraspanin 13) → TNF reporter robust z-score = -0.69; call = inactive
